The campaign covered roughly 140,000 compounds. About 4,300 (3.1%) were called active. The inconclusive results got no clear call from the source; some entries with a clear call stand among them for comparison.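 The calls were made as follows: active = readout at or below -70, meaning at least 70% loss of cells showing the perinucleolar compartment, a nuclear body marking cancer cells; inconclusive = readout between -30 and a set limit; inactive = the rest.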
Assay: High Content Assay for Compounds that inhibit the Assembly of the Perinucleolar Compartment;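 also: plate controls were DMSO wells for no effect and camptothecin positive control wells for full effect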
Conditions: PC3M PTB-GFP, PNC prevalence imaging, 16 h; at 10 µM; hits give low values
In short: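 Read-out is percentage of cells bearing a perinucleolar compartment, from automated 20x imaging of fixed, Hoechst-stained PC3M PTB-GFP cells. Cells were seeded 4 h, then exposed 16 h to compound (23 nl of library stock) in duplicate plates.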

| Compound | activity change (PNC), negative = inhibition |
| --- | --- |
| CCCC(=O)c1ccc(N2CCCC2)c(F)c1 | inactive: 18.7% |
| COc1ccc(OC)c(C(c2nnnn2CCc2ccccc2)N2CCC(C(N)=O)CC2)c1 (stereo not given) | inconclusive: -32.2% |
| Cc1ccc2c(c1)C(c1ccc(F)cc1)N(C(=O)C1CC1)CC(=O)N2 (stereo not given) | inconclusive: -30.2% |
| Cc1nc2cc(N3CCCCC3)c(NC(=O)c3ccncc3)cc2c(=O)n1Cc1ccc(Cl)cc1 | inactive: -9.55% |
| O=[N+]([O-])c1ccc(Cl)c(/C=N/N2CCN(Cc3ccccc3)CC2)c1 | inactive: -29.4% |
| CN(C)CCN1C(=O)C(O)=C(C(=O)c2cc3ccccc3o2)C1c1ccccn1 (stereo not given) | inconclusive: -43.8% |
| CCOc1ccc(-c2nn3c(-c4ccccc4)nnc3s2)cc1 | inconclusive: -43.3% |
| CC(C)(C)C(=O)Nc1nc2c(s1)COc1ccccc1-2 | inactive: -10.8% |
| CS(=O)(=O)N(CC(=O)N1CCN(c2ccc(F)cc2)CC1)c1ccc(F)c(Cl)c1 | inconclusive: -47.8% |
| CCN1C(=O)c2cccc3c(S(=O)(=O)N(C(=O)c4cccnc4)c4ccc(OC)cc4)ccc1c23 | inconclusive: -47.3% |
| O=C(Cc1ccc(Cl)cc1Cl)Nc1ccc(OC(F)F)c(Cl)c1 | inactive: 0.666% |
| CCC/C(O)=C1\C(=O)CC(c2ccccc2)CC1=NC(C)C(=O)O (stereo not given) | inconclusive: -31.2% |
| Cc1cc(=O)oc2c(C)c(OCC(=O)N(C)C)ccc12 | inconclusive: -37.5% |
| CCc1cc(=O)oc2cc(OCC(=O)N(CC)CC)c(Cl)cc12 | inconclusive: -34% |
| N#Cc1nc(COc2ccc(Br)cc2)oc1NCCCn1ccnc1 | inconclusive: -45.7% |
| c1ccc2c(c1)ncn2Cc1nnc2sc(-c3ccncc3)nn12 | inactive: 0.586% |
| COc1ccc(C)cc1NC(=O)CSc1ccc(Cl)cc1 | inconclusive: -33.6% |
| Cc1[nH]c(=O)[nH]c(=O)c1NC(=O)c1cccs1 | inconclusive: -54.2% |
| COc1ccc(C)cc1S(=O)(=O)N(C)CC(=O)Nc1ccccc1 | active: -108% |
| CCOc1ccc(OC(=O)C(CCS(C)(=O)=O)N2C(=O)c3ccccc3C2=O)cc1 (stereo not given) | inconclusive: -50.1% |
| COc1ccc(/C=N/NC(=O)C(N)=O)c(OC)c1OC | inconclusive: -30.7% |
| Cc1onc(-c2ccccc2)c1C(=O)Nc1ccc(S(=O)(=O)NC2=NCCCCC2)cc1 | inconclusive: -62% |
| CCC(C)NC(=O)c1ccc(CS(=O)(=O)c2ccc(OC)cc2)o1 (stereo not given) | inconclusive: -40.8% |

Of the compounds above, these contain a furan ring, fused or not:

| Compound | activity change (PNC), negative = inhibition |
| --- | --- |
| CN(C)CCN1C(=O)C(O)=C(C(=O)c2cc3ccccc3o2)C1c1ccccn1 (stereo not given) | inconclusive: -43.8% |
| CCC(C)NC(=O)c1ccc(CS(=O)(=O)c2ccc(OC)cc2)o1 (stereo not given) | inconclusive: -40.8% |

The listing continues:

| Compound | activity change (PNC), negative = inhibition |
| --- | --- |
| Cc1cc2c(n1-c1ccc(C(N)=O)cc1)CC(C)(C)CC2=O | inconclusive: -31.7% |
| O=C(Nc1ccccc1)Nc1cc(S(=O)(=O)N2CCOCC2)ccc1N1CCCC1 | inactive: 5.52% |
| O=C(O)c1n[nH]c2c1CCCCC2 | active: -89% |
| COC(=O)c1c(NC(=O)c2ccccc2[N+](=O)[O-])sc2c1CC(C)(C)NC2(C)C | inconclusive: -34.6% |
| CCC(C)n1c(SCC(=O)Nc2ccccc2C(F)(F)F)nc2ccsc2c1=O (stereo not given) | inconclusive: -70.8% |
| C/C(=N\NC(=O)c1c(Br)c(C)nn1C)c1ccc(NC(=O)c2ccoc2C)cc1 | inconclusive: -71.2% |
| N#Cc1c2c(c(=S)n(-c3ccccc3)c1N)CCCC2 | inconclusive: -64.5% |
| Cc1ccc(Cn2ncc3c(N4CCCC4)ncnc32)cc1 | inconclusive: -69.9% |
| CCCN(CCC)C1CC(=O)N(Cc2ccccc2)C1=O (stereo not given) | inactive: -3.07% |
| COc1cc(C(=O)N(Cc2cccnc2)Cc2cc3cc4c(cc3[nH]c2=O)OCCO4)cc(OC)c1OC | inconclusive: -36.4% |
| COc1ccccc1Nc1nnc(SCC(=O)N2CCCC2)s1 | inconclusive: -32% |
| Cc1ccc(-n2c(C)cc(C(=O)NS(=O)(=O)c3ccc(C)cc3)c2C)cc1 | inconclusive: -56.5% |
| COc1ccccc1C(=O)NCCCn1cc(Br)c(C)n1 | inactive: 12.3% |
| O=S(=O)(NCc1ccccc1)c1ccc(Cl)c(S(=O)(=O)NCc2ccccc2)c1 | inconclusive: -64.8% |
| COc1cc(C(=O)Nc2nccs2)c(Br)c(OC)c1OC | inconclusive: -62.2% |
| Fc1cccc(Cl)c1Cn1nnc(-c2ccc3c(c2)OCO3)n1 | inactive: -17% |
| CCOC(=O)Cn1c(=NC(=O)CSC(C)=O)sc2ccccc21 | inconclusive: -72.7% |
| CCNC(=S)N1CCN(CCN=CC2=C(O)CC(c3ccco3)CC2=O)CC1 (stereo not given) | inactive: -3.02% |
| Cc1cc(Nc2ccc(C)c(C)c2)n2nc(C)nc2n1 | inactive: -20.4% |
| CCOc1ccc(C2=Nc3ccc(Br)cc3C(c3ccc(N4CCOCC4)cc3)=NN2)cc1 | inconclusive: -36.5% |
| CC1CCCN(Cc2cnc(Cl)s2)C1 (stereo not given) | inconclusive: -48.8% |
| O=C(Nc1nccs1)C1CCN(S(=O)(=O)c2c(Cl)cccc2Cl)CC1 | inactive: 15.8% |

From PubChem BioAssay AID2417 (National Center for Advancing Translational Sciences (NCATS), 2010)
